A short description of this test: qHTS Assay for Lipid Storage Modulators in Drosophila S3 Cells.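 For cell number change: cells counted by Cell Tracker Red CMTPX staining in the red channel.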 To be noted: BODIPY lipid droplet fluorescence, 18-24 h; for cell number change: measured here: cell count max response, cells fed with added oleic acid. The essentials: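 Drosophila S3 cells got compounds at several concentrations plus oleic acid (400 uM solution). Laser-scanning cytometry with 488 nm excitation read lipid droplets at 500-530 nm and cells at 575-640 nm. Percent activity was relative to 20 uM Triacsin C.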

Where [1] appears, read: measured here: cell number channel AC50, cells fed with added oleic acid.
Setting [2] is: measured here: lipid fluorescence (Fed channel) AC50, cells fed with added oleic acid.

Cell number change and AC50 data for 61 compounds are collected here from PubChem BioAssay AID2685 (National Center for Advancing Translational Sciences (NCATS), 2010).

This is one part of the list. These are further read-outs of the screen, such as a control signal, another cell line or another target. No call is given for them. Most of these compounds were active or inconclusive in the main read-out, so they are no random draw. Words in brackets tell the shape of the fitted curve; partial curves, single points and poor fits give uncertain potencies.

Regarding `Cc1ccc(/C=N/NC(=O)c2ccc(NC(=O)c3ccccc3Cl)cc2)o1`, the cell number change is 8.75%.

For the compound `O=C1NC(=S)CN1c1ccccc1`, the cell number change was -59.2%. For the same compound, the AC50 under setting [1] was 7.31 µM [falling, partial curve]. Also, the AC50 under setting [2] is 3.66 µM [falling, full curve].

Consider `O=C(NC1CCNCC1)C1CCCCC1`, for which the cell number change was found to be 31.4%.

For `Cc1cc(C)nc(NC(=NCc2ccc3c(c2)OCO3)NC(=O)Nc2ccccc2)n1`, the cell number change is -5.58%. Moreover, the AC50 under setting [2] was 1.64 µM [falling, full curve].

As for `Cc1c(C(=O)O)c(=O)n(-c2ccccc2)n1-c1ccccc1`, the cell number change is 76.1%. The half-maximal activity concentration (AC50) under setting [1] is 2.91 µM [falling, partial curve].

Turning to `CC(Sc1nc(N2CCCCC2)c2c(c1C#N)CCCC2)C(=O)O` (configuration not stated), the cell number change is -18%. Further, the AC50 under setting [2] was 0.146 µM [falling, full curve, poor fit].

`C=CCOCCN1C(=O)C2C(c3ccccc3)C=CC(c3ccccc3)C2C1=O` (configuration not stated): the cell number change is 45%. For the same compound, the AC50 under setting [1] is 29.1 µM [rising, single point].

`C=CCSC1=C(C#N)C(c2ccccc2Cl)C(C(=O)c2cccs2)C(O)(C(F)(F)F)N1` (configuration not stated): the cell number change was 8.73%. Further, the AC50 under setting [2] is 0.146 µM [rising, full curve].

On to `Cc1ccc(-n2cnnn2)c2cccnc12`, for which the cell number change is 16%. The AC50 under setting [2] was 2.31 µM [rising, single point].

In the case of `CCOc1ccc(CCNC(=O)C2CC(=O)N(Cc3ccc(OC)cc3)C2)cc1OCC` (configuration not stated), the cell number change turned out to be 9.23%. Moreover, the AC50 under setting [1] is 0.291 µM [rising, partial curve].

Take `CC1(C)CC(=O)C(C(=O)c2ccccc2)C(=O)C1`: the cell number change was -28.7%. Under setting [2], the AC50 is 29.1 µM [falling, single point].

Take `O=C(NC1CCN(Cc2ccccc2)CC1)c1cccc(S(=O)(=O)Nc2ccc(F)cc2)c1`: the cell number change is -21.6%. For the same compound, under setting [2], the AC50 is 16.4 µM [falling, partial curve].

For the compound `O=C(Nc1cccc(Cl)c1)Nc1ccc(Br)cc1F`, the cell number change was -66.3%. In addition, the AC50 under setting [1] is 16.4 µM [falling, partial curve]. Under setting [2], the AC50 is 9.2 µM [falling, partial curve].

Consider `CCc1cccc(Oc2nn[nH]n2)c1`, for which the cell number change was -6.32%.

In the case of `Cc1nc(C)c(C(=O)N2CCCC(CCC(=O)NCc3ccc(F)c(F)c3)C2)s1` (configuration not stated), the cell number change was -26.6%. The AC50 under setting [2] was 20.6 µM [falling, partial curve, poor fit].

Regarding `O=C(Nc1cccc2ccccc12)c1nn(C23CC4CC(CC(C4)C2)C3)cc1[N+](=O)[O-]`, the cell number change is -19.3%. Further, under setting [2], the AC50 was 29.1 µM [rising, single point].

For `CCn1c(SCC(=O)Nc2ccc(N(C)C)cc2)nnc1-c1ccco1`, the cell number change is 25.4%. The AC50 under setting [2] was 25.9 µM [rising, single point].

Turning to `O=S(=O)(C/C(=C/CO)S(=O)(=O)c1ccccc1)c1ccccc1`, the cell number change is -71.1%. Besides, the AC50 under setting [1] was 5.8 µM [falling, full curve]. Besides, the AC50 under setting [2] is 5.17 µM [falling, full curve].

Take `O=C(Nc1cccc(Cl)c1Cl)C1CCN(C(=O)c2cccs2)CC1`: the cell number change came out at 3.36%.

For the compound `CC(=O)Nc1ccc(NC(=O)C(C)OC(=O)CCc2c[nH]c3ccccc23)cc1` (configuration not stated), the cell number change was determined as 34.7%. Moreover, the AC50 under setting [1] is 7.31 µM [rising, partial curve, poor fit]. In addition, under setting [2], the AC50 was 6.51 µM [rising, single point].

Turning to `COC(=O)C1CCN(C(=O)COC(=O)CC(NC(C)=O)c2ccccc2)CC1` (configuration not stated), the cell number change was -18.4%. Moreover, under setting [1], the AC50 was 0.00184 µM [falling, full curve, poor fit]. For the same compound, the AC50 under setting [2] was 25.9 µM [falling, partial curve].

With `Cc1ccccc1Nc1nc(N)nc(COc2ccc(C#N)cc2)n1`, the cell number change is 51.7%. Further, the AC50 under setting [1] is 18.4 µM [rising, single point].

Regarding `COc1cc2c(cc1OC)C(c1ccccc1)=NCC2`, the cell number change was determined as 71.7%. Further, the AC50 under setting [1] was 4.11 µM [rising, partial curve, poor fit].

Consider `Cc1ccc(SCC(=O)OCC(=O)N(C)CC(=O)Nc2ccc(F)cc2)cc1`, for which the cell number change is -12%. Moreover, the AC50 under setting [2] was 0.00461 µM [falling, full curve, poor fit].

With `COc1cccc(NC(=O)Nc2nnc(-c3ccccc3SCc3ccccc3)s2)c1`, the cell number change is -20.2%. For the same compound, under setting [2], the AC50 was 6.51 µM [rising, partial curve].

Turning to `c1cc2[nH]snc2c2nc(C3CC3)nc12`, the cell number change worked out at 60.7%. The AC50 under setting [1] is 5.17 µM [rising, full curve]. Further, the AC50 under setting [2] was 5.17 µM [rising, single point].

As for `Cc1cc(C)n(CCCN2CCC(C(=O)Nc3cccc(-c4cccc(F)c4)c3)CC2)n1`, the cell number change is -8.22%.

As to `C=CCC1(N(C(C)=O)c2ccccc2)CCCCC1`, the cell number change is -15%. The AC50 under setting [2] is 0.092 µM [falling, full curve, poor fit].

As for `CC(NS(=O)(=O)c1ccc(Br)cc1)C(N)=O` (configuration not stated), the cell number change is -226%. For the same compound, the AC50 under setting [1] is 25.9 µM [falling, partial curve]. In addition, under setting [2], the AC50 was 20.6 µM [falling, partial curve].

As for `CSc1nnc2c(n1)OC1(Nc3ccccc3-2)C(=O)Nc2ccccc21` (configuration not stated), the cell number change is 23%.

Turning to `CCCCC[n+]1ccn(-c2nc3ccccc3nc2[N-]S(=O)(=O)c2ccc(C)cc2)c1`, the cell number change is -12.3%. The AC50 under setting [2] is 6.51 µM [falling, single point].

Take `COC(CNC(=O)c1cn(C)c2ccc(S(=O)(=O)N(C)C3CCCCC3)cc2c1=O)OC`: the cell number change is -4.03%. For the same compound, under setting [2], the AC50 is 0.326 µM [rising, single point].

On to `CC(=O)Nc1ccc(CN2CCCC(CO)(Cc3cccc(Cl)c3)C2)cc1` (configuration not stated), for which the cell number change is 39.8%. Moreover, the AC50 under setting [1] was 0.00517 µM [rising, full curve, poor fit].

In the case of `COc1ccc(C[C@H]2CN3C(=NC[C@@H]3C(C)C)N2C[C@H](C)NC(=O)c2ccc(C)c(Br)c2)cc1`, the cell number change is -20.9%. Further, under setting [2], the AC50 was 4.11 µM [falling, full curve].

As to `O=C(O)c1ccccc1S(=O)CCO` (configuration not stated), the cell number change was 11.8%.

Consider `CN1CCN(c2ccccc2NC(=O)c2ccc(-c3ccccc3)cc2)CC1`, for which the AC50 is 2.59 µM [rising, single point] under setting [1] and 2.91 µM [rising, partial curve] under setting [2].

With `N#CC(C(N)=O)=C1CCCCC1`, the cell number change turned out to be 19.8%. Besides, the AC50 under setting [2] is 6.51 µM [rising, full curve].

With `COc1cccc(N2C(=O)C3ON(c4ccccc4)C(c4cccs4)C3C2=O)c1` (configuration not stated), the AC50 under setting [2] was 0.231 µM [falling, partial curve].

For `Cc1onc(-c2ccccc2Cl)c1C(=O)NC(=S)Nc1ccc(C(C)C)cc1`, the cell number change was determined as 11.1%.

Consider `O=C(Nc1cc(Br)ccc1O)c1cc(-c2ccccc2)on1`, for which the cell number change was 8.77%.

`CCOc1cccc(NC(=O)c2ccc(S(=O)(=O)N3CCCC3)cc2)c1`: the cell number change was -34.8%. Also, the AC50 under setting [1] is 29.1 µM [falling, single point].

Take `CCN(CC)S(=O)(=O)c1ccc(OC)c(NC(=O)c2ccc(-n3cncn3)c([N+](=O)[O-])c2)c1`: the cell number change was 41.8%. Besides, the AC50 under setting [1] was 4.11 µM [rising, full curve].

Regarding `COc1cccc(C(=O)NCCSc2c(C)[nH]c3ccccc23)c1OC`, the cell number change is -39.4%. Besides, the AC50 under setting [2] is 20.6 µM [falling, single point].

With `Cc1cccc(NC(=O)c2cc([N+](=O)[O-])ccc2NCC2CCCO2)n1` (configuration not stated), the cell number change turned out to be 33.1%. The concentration at half-maximal activity (AC50) under setting [1] was 7.31 µM [rising, partial curve, poor fit].

Turning to `COc1ccc(C(=O)Nc2c(C)cc(C)cc2C)cc1OC`, the cell number change came out at 17.5%.

With `CC(C)Oc1ccc(S(=O)(=O)N2CCOCC2)cc1NC(=O)CC1CCCC1`, the cell number change was -9.33%. For the same compound, under setting [2], the AC50 is 0.092 µM [rising, full curve, poor fit].

As for `CCN1CCCC1CNC(=O)c1[nH]c2ccc(OC)cc2c1C` (configuration not stated), the cell number change is 10.8%. In addition, under setting [2], the AC50 was 29.1 µM [rising, single point].

Regarding `O=C(O)c1cccc(S(=O)(=O)Nc2ccccc2-c2ccccc2)c1`, the cell number change is -42.4%. The AC50 under setting [1] is 6.51 µM [falling, single point]. The AC50 under setting [2] is 4.11 µM [falling, single point].

Take `CCOC(=O)C(Nc1ccc2ccccc2c1)C(=O)OCC`: the cell number change was -65.5%. Further, the half-maximal activity concentration (AC50) under setting [1] was 29.1 µM [falling, single point]. For the same compound, under setting [2], the AC50 is 25.9 µM [falling, partial curve].

Turning to `O=C(NCc1nc2ccccc2[nH]1)c1ccc(S(=O)(=O)N2CCOCC2)cc1`, the cell number change is 4.61%.

`Cc1nc(-c2ccc(F)cc2)c(CC(=O)N(C)CC(=O)Nc2ccccc2C(F)(F)F)s1`: the AC50 by setting is: under setting [1], 0.92 µM [rising, full curve, poor fit]; under setting [2], 7.31 µM [rising, partial curve, poor fit].

On to `Cc1cc(NC(=O)COC(=O)c2c(C)noc2C)ccc1Br`, for which the AC50 under setting [1] was 6.51 µM [rising, single point] and the AC50 under setting [2] was 6.51 µM [rising, single point].

As for `CC(=O)NC(=S)Nc1ccc(NC(=S)NC(=O)c2ccc([N+](=O)[O-])cc2)cc1`, the cell number change was determined as 30.3%. The AC50 under setting [1] was 2.91 µM [rising, partial curve].

Consider `COc1cccc(-n2c(Cc3cc(=O)[nH]c(=O)[nH]3)nnc2SCC(=O)N2CCCCCC2)c1`, for which the cell number change was 25.1%. Also, the AC50 under setting [2] is 6.51 µM [rising, single point].

In the case of `COc1ccc(CCNC(=O)Cc2nn(C)c(=O)c3ccccc23)cc1OC`, under setting [2], the AC50 is 6.51 µM [rising, single point].

Regarding `COc1ccc(C(=O)NCCS(=O)(=O)NCc2cccs2)cc1`, the cell number change worked out at 2.89%. Moreover, the AC50 under setting [2] was 0.00461 µM [falling, full curve, poor fit].

Take `CCC(C)(C)n1nnnc1C(c1ccccc1OC)N1CCN(C(=O)c2ccco2)CC1` (configuration not stated): the cell number change turned out to be 23.4%.

For the compound `COC(=O)c1ccc(SCC(=O)N2CCC(C)CC2)c([N+](=O)[O-])c1`, the cell number change turned out to be 3.77%. Further, the AC50 under setting [2] was 14.6 µM [rising, single point].

On to `CCOc1cccc(-c2c(C(=O)N/N=C/c3sccc3C)nnn2-c2nonc2N)c1`, for which the cell number change was -12.4%. Further, under setting [1], the AC50 is 3.66 µM [falling, single point].

With `CN1CCN(CC(O)COC(c2ccccc2)c2ccccc2)CC1` (configuration not stated), the cell number change was -19%. Further, the AC50 under setting [2] is 6.51 µM [rising, partial curve, poor fit].

With `Cc1cc(C)nc(-n2nc(C)cc2NC(=O)CNC2CCCCC2)n1`, the cell number change was 2.89%. The AC50 under setting [2] is 20.6 µM [rising, single point].
